Laboratory results published in patent US20090274685A1.
Results are given in words; binding and its absence hold for the method and conditions named. Some entries that bind do so weakly or less than the wild type.

Amino acid sequences for entries named in this document (tags omitted). Residues count along the entry.
UniProt P29350: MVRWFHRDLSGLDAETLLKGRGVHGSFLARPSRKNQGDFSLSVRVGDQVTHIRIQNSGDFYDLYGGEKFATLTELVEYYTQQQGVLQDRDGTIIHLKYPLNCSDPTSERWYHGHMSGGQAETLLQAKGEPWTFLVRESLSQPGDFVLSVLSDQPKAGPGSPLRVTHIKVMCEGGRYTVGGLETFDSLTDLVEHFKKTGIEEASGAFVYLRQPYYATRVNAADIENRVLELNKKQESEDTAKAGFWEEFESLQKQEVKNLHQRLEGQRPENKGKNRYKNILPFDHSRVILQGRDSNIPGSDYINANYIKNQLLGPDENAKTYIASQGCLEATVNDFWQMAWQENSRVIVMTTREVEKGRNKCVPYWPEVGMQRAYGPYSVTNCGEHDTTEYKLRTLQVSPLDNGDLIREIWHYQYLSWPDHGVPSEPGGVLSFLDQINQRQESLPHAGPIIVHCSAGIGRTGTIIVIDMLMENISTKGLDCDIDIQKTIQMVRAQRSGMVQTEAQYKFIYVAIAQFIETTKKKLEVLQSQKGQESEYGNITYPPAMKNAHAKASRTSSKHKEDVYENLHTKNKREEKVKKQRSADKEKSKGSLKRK
UniProt Q8NHJ6, residues 22-448: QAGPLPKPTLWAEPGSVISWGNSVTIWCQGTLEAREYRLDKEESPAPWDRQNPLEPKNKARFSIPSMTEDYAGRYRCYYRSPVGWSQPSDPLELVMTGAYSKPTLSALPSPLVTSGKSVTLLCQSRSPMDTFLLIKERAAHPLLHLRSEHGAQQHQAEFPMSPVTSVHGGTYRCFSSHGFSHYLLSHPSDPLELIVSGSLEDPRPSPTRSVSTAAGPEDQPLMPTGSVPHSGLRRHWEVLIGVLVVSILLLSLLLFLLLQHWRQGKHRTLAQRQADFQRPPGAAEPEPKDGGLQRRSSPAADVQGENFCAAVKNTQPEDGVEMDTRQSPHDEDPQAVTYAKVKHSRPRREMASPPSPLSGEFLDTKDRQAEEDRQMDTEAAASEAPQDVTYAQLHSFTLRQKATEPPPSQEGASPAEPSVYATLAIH

Molecular target: SHP-1 phosphatase (UniProt P29350)
Experiment: immunoprecipitation with anti-SHP-1 antibodies, Western blot with anti-myc antibody (FIG. 4C)

For “full-length human ILT3 over-expressed in KG1 cells (KG1.ILT3) (from UniProt Q8NHJ6 22-448) (receptor)”, which binding is on record?
The binding was “binds”.
